According to the supplement of paper PMC8426693:
This is one part of the list.

Legend:
Test in all cases: NMR binding call after quantification (hit when 2 of 3 NMR criteria are met) (binary (1 = binding, 0 = not binding)); higher = binding
Details in all cases: RNA concentration 10 µM; fragment concentration 200 µM; 293 K
SARS-CoV-2 5'-UTR RNA = system: SARS-CoV-2 5'-UTR RNA
SARS-CoV-2 5_SL1 RNA = system: SARS-CoV-2 5_SL1 RNA
SARS-CoV-2 5_SL1234 RNA = system: SARS-CoV-2 5_SL1234 RNA
SARS-CoV-2 5_SL2+3 RNA = system: SARS-CoV-2 5_SL2+3 RNA
SARS-CoV-2 5_SL4 RNA = system: SARS-CoV-2 5_SL4 RNA
SARS-CoV-2 5_SL5 RNA = system: SARS-CoV-2 5_SL5 RNA
SARS-CoV-2 5_SL5a RNA = system: SARS-CoV-2 5_SL5a RNA
SARS-CoV-2 5_SL5b+c RNA = system: SARS-CoV-2 5_SL5b+c RNA
SARS-CoV-2 5_SL5stem RNA = system: SARS-CoV-2 5_SL5stem RNA
SARS-CoV-2 5_SL6 RNA = system: SARS-CoV-2 5_SL6 RNA

Measured: NMR binding call

CC(N)CN1CCOCC1 (stereo not given)
0: all assays above

CCn1ccc(CNC)n1
0: all assays above

c1ccc(CN2CCC(n3cccc3)CC2)cc1
0: all assays above

CC(C)NC(=O)N(C)C1CCS(=O)(=O)C1 (stereo not given)
0: all assays above

CC(Oc1ccc(Cl)cc1)C(N)=O (stereo not given)
0: all assays above

CN1CCC(Oc2cccc(F)c2)C1=O (stereo not given)
0: all assays above

3 structures out of the list, sorted by length of the SMILES, smallest number first.
CC(N)CN1CCOCC1 (stereo not given)
0: all assays above

c1ccc(CN2CCC(n3cccc3)CC2)cc1
0: all assays above

CC(C)NC(=O)N(C)C1CCS(=O)(=O)C1 (stereo not given)
0: all assays above

The list goes on.

CC(CS(N)(=O)=O)c1ccccc1 (stereo not given)
0: all assays above

CNc1ncc(C(F)(F)F)cc1Cl
0: all assays above

Cc1nc(CC(=O)N2CCOCC2)cs1
0: all assays above

NC(=S)Nc1ccccc1OC(F)(F)F
0: all assays above

CCOC(=O)c1sc(-c2cnccn2)nc1C
0: all assays above

Cn1cc(Cl)c(C(=O)NC2CCCC2)n1
0: all assays above

O=C(Nc1nccs1)C1CC1c1ccccc1 (stereo not given)
0: all assays above

CC(=O)Nc1ncc(Cc2cccc(C)c2)s1
0: all assays above

CN(C1CCCCCC1)S(C)(=O)=O
0: all assays above
